# Measured values: patent publication US20060264508A1, “Modulation of ocular growth and myopia by gaba drugs” (priority 2001, published 2006)
# At least one compound was matched to its structure with a doubt left.
# Test system: non-goggled eyes
# Type: in vivo, White leghorn chicks
# Conditions: daily intravitreal dose(s) at which drug-treated differ from contralateral vehicle-treated eyes (P<0.05, Tukey test)
# Excerpt: Chicks were anesthetized with inhalation ether for all goggle applications and drug injections. The experimental eye was the right eye in half of the chicks, and the left eye in the other half of the chicks, assigned in an alternating order within each group. Form-deprivation myopia was induced by attaching a unilateral translucent white plastic goggle to the periorbital feathers with cyanoacrylate glue. All research conformed with the ARVO Resolution on the Use of Animals in Ophthalmic and Vision Research.
# All goggle applications and/or drug injections began when the chicks reached one week of age. […]
# On this day, the animals received no intraocular injections. […] While still under general anesthesia, the chicks were decapitated; and the axial and equatorial dimensions of enucleated eyes were measured with digital calipers. […]
# For goggled chicks, the primary measure of outcome was the drug effect on the ocular response to wearing a goggle, and comparisons of individual doses to each other and to vehicle-treated controls for each drug. Differences in refraction and each size measurement between goggled and contralateral eyes were assessed by one-way analysis of variance (ANOVA). […]
smiles,measurement,value
"CP(=O)(O)C1=CCNCC1 [TPMPA, (1,2,5,6-tetraliydro-pyridine-4-yl) methyiphosphinic acid]",Equatorial diameter (calipers),200 & 100 μg
